Experimental findings from patent publication US20240376151A1, “STAPLED PEPTIDES AND METHODS THEREOF” (FOG PHARMACEUTICALS, INC., priority 2022, published 2024) are described below.

Protein sequences, listed by entry. Tags and fused reporters are not part of them. Lines headed by an entry give the natural chain unless they say otherwise; changes in a name come on top.
UniProt Q9NZQ7: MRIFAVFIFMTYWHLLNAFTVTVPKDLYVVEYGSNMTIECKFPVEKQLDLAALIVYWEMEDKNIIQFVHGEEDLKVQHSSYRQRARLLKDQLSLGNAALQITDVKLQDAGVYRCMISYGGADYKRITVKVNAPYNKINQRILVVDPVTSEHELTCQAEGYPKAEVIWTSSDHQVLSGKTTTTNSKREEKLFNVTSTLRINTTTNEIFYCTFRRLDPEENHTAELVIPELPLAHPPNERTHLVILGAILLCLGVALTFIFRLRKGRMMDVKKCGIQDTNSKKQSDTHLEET

These are yes or no findings as the source states them, for the method shown. Some binding calls cover weakened binding; strength is not graded here.

In this assay the target is human PD-L1 (residues 18-239) with C-terminal TEV-10xHis-Avi tag, biotinylated (human) (UniProt Q9NZQ7). The assay can be described thus: analytical SEC and TR-FRET (biotinylated PD-L1 + Alexa Fluor 488 PD-L1); dimer only with FP28132 (or BMS-1001) present. For orientation: TR-FRET usually uses a lanthanide donor and a delayed reading to cut background.

On to “human PD-L1 (residues 18-239) with C-terminal TEV-10xHis-Avi tag, biotinylated (from UniProt Q9NZQ7 18-239) (receptor)”, for which the binding result is on record as “binds”.
